Results are given in words; binding and its absence hold for the method and conditions named. In cells and extracts the contact can be indirect. Binding can be weak; no strength is given. Tags and fused reporters may be left off the sequences shown.
Molecular target: T1, GFP-Cep70 (centrosomal protein 70) (UniProt Q8NHQ1)
T1 sequence: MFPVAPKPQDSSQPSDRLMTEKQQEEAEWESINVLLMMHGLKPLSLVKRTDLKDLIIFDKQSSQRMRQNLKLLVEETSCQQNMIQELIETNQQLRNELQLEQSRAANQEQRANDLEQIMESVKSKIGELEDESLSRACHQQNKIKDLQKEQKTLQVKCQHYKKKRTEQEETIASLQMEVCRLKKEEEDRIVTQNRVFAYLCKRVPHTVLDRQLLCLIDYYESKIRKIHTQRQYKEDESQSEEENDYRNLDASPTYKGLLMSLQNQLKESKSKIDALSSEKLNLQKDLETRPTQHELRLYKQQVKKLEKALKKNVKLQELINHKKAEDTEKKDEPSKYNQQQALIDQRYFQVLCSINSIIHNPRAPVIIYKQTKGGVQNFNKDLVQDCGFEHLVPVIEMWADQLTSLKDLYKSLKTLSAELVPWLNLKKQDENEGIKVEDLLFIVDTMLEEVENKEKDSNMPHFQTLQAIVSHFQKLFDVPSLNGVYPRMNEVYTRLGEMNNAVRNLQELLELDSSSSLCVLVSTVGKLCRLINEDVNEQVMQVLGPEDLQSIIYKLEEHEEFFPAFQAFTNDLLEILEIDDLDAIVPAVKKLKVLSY
Assay: co-IP; GFP-Cep70 or GFP transfected into 293T cells; lysates incubated with anti-GFP antibody-conjugated agarose beads at 4 °C overnight, washed with RIPA lysis buffer; immunoblot with anti-tubulin or anti-GFP antibodies

With tubulin (human (endogenous in 293T)) the binding was “binds”.
